Test results as given in patent publication EP4674870A1 (Sunshine Guojian Pharmaceutical (Shanghai) Co., Ltd., dated 2026).
Results are given in words; binding and its absence hold for the method and conditions named. Some binding calls cover weakened binding; strength is not graded here.

How the values were obtained:
[1] = molecular target: T1, Cynomolgus(Rhesus)-TL1A (cynomolgus monkey) (UniProt G7PRK8); test: ELISA
T1 sequence: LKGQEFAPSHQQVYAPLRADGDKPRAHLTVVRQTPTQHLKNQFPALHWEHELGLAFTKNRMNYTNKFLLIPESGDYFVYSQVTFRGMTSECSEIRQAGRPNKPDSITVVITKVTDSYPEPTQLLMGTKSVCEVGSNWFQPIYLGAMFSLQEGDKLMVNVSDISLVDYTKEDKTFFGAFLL

[2] = molecular target: T2, Rat-TL1A (rat) (UniProt Q8K3Y7); test: ELISA
T2 sequence (looked up): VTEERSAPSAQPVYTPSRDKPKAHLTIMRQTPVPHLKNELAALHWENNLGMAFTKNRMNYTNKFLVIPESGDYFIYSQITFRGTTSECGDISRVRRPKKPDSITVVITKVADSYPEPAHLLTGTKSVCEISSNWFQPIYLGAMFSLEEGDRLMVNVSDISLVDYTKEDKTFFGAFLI

binding [1]: binds | binding [2]: binds
B1: humanized antibody 72851 (antibody, human IgG1, kappa, L234A L235A, V domains shown)
VH: QVQLVQSGAEVKKPGASVKVSCKASGYSFTGYTMNWVRQAPGQNLEWIGLINPYSGGTNYNQKFKGRATLTVDTSISTAYMELSRLRSDDTAVYYCASIYQRHDGIAYWGQGTLVTVSS
VL: EIVLTQSPDFQSVTPKEKVTITCSASSSVNYMHWYQQKPDQSPKLLIKDTSKLASGVPSRFSGSGSGTDFTLTINSLEAEDAATYYCQQWSSSPYTFGGGTKVEIKR
notes: Humanized from 728H4D9; human IgG1/kappa
